# Source: publication PMC5312596, “A novel Pfs38 protein complex on the surface of Plasmodium falciparum blood-stage merozoites” (Malaria Journal, 2017)
# By UniProt entry, the sequences of proteins in these tests, tags left out. Residues count along the entry.
# UniProt P02724, residues 20-150: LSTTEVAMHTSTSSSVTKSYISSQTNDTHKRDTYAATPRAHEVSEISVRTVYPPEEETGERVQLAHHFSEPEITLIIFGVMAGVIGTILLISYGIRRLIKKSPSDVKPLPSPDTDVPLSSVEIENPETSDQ
# UniProt Q9TY95, residues 23-997: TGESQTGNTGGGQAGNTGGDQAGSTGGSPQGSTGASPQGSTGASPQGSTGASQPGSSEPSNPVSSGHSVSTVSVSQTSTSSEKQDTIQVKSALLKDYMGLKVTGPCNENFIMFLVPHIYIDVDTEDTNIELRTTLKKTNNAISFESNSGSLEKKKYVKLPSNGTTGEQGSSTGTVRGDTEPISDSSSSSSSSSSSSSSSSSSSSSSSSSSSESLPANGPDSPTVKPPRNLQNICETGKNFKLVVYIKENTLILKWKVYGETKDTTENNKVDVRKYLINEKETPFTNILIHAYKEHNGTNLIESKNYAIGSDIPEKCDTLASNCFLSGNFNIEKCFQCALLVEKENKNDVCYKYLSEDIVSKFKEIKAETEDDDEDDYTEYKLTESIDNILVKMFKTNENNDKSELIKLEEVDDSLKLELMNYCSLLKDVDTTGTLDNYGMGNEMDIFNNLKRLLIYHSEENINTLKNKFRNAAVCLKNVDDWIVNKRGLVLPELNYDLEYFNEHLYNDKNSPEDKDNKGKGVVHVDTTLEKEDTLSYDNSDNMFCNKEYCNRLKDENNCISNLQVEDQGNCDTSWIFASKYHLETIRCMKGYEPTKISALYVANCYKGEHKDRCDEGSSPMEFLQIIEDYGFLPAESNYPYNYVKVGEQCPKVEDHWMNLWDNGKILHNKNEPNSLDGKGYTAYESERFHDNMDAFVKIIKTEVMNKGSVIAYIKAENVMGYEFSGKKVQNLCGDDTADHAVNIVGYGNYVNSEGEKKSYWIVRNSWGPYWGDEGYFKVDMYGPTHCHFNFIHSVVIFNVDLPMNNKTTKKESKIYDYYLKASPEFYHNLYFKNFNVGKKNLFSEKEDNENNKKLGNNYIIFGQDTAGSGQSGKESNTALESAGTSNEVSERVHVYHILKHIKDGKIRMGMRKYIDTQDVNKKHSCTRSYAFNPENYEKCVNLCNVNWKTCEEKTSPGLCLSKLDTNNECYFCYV
# Results are given in words; binding and its absence hold for the method and conditions named. For some assays here: Binding seen in cells or lysates may run through a third protein. Some entries that bind do so weakly or less than the wild type.
# T1: recombinant Pfs38 (6-Cys domain, aa 153–328) (Plasmodium falciparum) (UniProt Q8I423)
# T1 sequence: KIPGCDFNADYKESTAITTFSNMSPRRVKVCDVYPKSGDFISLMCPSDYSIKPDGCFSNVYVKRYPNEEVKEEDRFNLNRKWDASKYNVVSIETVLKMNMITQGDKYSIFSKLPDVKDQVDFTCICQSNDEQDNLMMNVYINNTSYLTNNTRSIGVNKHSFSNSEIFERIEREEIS
# Experiments:
# [1] = target: T1, recombinant Pfs38 (6-Cys domain, aa 153–328) (Plasmodium falciparum); test: ELISA; inhibition assay: Pfs38 coated at 2 µg/mL; anti-Pfs38 antibodies at 0.25, 0.5, 1 and 2 mg/mL for 30 min, then glycophorin A at 20 µg/mL for 2 h; both purified
# [2] = target: native Pfs38 (Plasmodium falciparum 3D7 (endogenous in cultured parasites)) (UniProt Q8I423); test: co-sedimentation; schizont lysate (0.5% Nonidet P-40/Hepes-buffered saline) on a 5-45% step glycerol gradient, 38,000 rpm, 18 h, 4 °C; fractions analysed by Western blot and fraction 5 by LC-MS/MS
# [3] = target: T1, recombinant Pfs38 (6-Cys domain, aa 153–328) (Plasmodium falciparum); test: far-Western, overlay or dot blot; 1-5 µg recombinant protein separated by SDS-PAGE, blotted, denatured and renatured; membrane incubated with 2 µg/mL purified GLURP R2, Pfs38 or SERA-5 in 100 mM NaCl, 20 mM Tris pH 7.6, 0.5 mM EDTA, 10% glycerol, 1 mM DTT, 2 h at RT; detected with antisera to the soluble protein; both purified
# [4] = target: T1, recombinant Pfs38 (6-Cys domain, aa 153–328) (Plasmodium falciparum); test: ELISA; Pfs38 coated at 2 µg/mL overnight at 4 °C; recombinant partners added at 2, 5, 10 and 20 µg/ml for 2 h; detected with polyclonal antibody against the added protein; both purified
# glycophorin A (human) = glycophorin A (human) (UniProt P02724); test: ELISA; glycophorin A coated at 1 µg/mL at 4 °C; increasing concentrations of Pfs38, GLURP R2 or PfMLH added for 2 h; both purified
molecule,measurement,setting,value
glycophorin A (from UniProt P02724 20-150) (receptor),binding,[1],binds
native Serine repeat antigen 5 (SERA-5) (from UniProt Q9TY95 23-997),binding,[2],binds
recombinant SERA5 (from UniProt Q9TY95 23-997),binding,[3],binds
same,binding,[4],binds
"recombinant Pfs38 (6-Cys domain, aa 153–328) (domain or fragment, Pfs38, Plasmodium falciparum 6-Cys protein; 6-Cys domain aa 153-328, amplified from a codon-optimised synthetic gene (aa 22-328) and cloned in pET28b between NcoI and XhoI; Cloning in pET28b between NcoI and XhoI would give a C-terminal His6 (surmised); The forward primer adds a few residues (Met-Gly-Ser) before the insert (surmised from the primer); also called rPfs38) KIPGCDFNADYKESTAITTFSNMSPRRVKVCDVYPKSGDFISLMCPSDYSIKPDGCFSNVYVKRYPNEEVKEEDRFNLNRKWDASKYNVVSIETVLKMNMITQGDKYSIFSKLPDVKDQVDFTCICQSNDEQDNLMMNVYINNTSYLTNNTRSIGVNKHSFSNSEIFERIEREEIS",binding,glycophorin A (human),binds
